No constants are given. Whether binding was seen depends on the method and setting. In cells and extracts the contact can be indirect. Here binding means that the protein was enriched with, or labelled near, the bait; the list need not be complete.
B1: Rho guanine nucleotide exchange factor 7 (protein, UniProt O55043 1-646)
chain: MTDNANSQLVVRAKFNFQQTNEDELSFSKGDVIHVTRVEEGGWWEGTHNGRTGWFPSNYVREIKPSEKPVSPKSGTLKSPPKGFDTTAINKSYYNVVLQNILETEHEYSKELQSVLSTYLWPLQTSEKLSSANTSYLMGNLEEISSFQQVLVQSLEECTKSPEAQQRVGGCFLSLMPQMRTLYLAYCANHPSAVSVLTEHSEDLGEFMETKGASSPGILVLTTGLSKPFMRLDKYPTLLKELERHMEDYHPDRQDIQKSMTAFKNLSAQCQEVRKRKELELQILTEPIRSWEGDDIKTLGSVTYMSQVTIQCAGSEEKNERYLLLFPNLLLMLSASPRMSGFIYQGKLPTTGMTITKLEDSENHRNAFEISGSMIERILVSCNNQQDLHEWVEHLQRQTKVTSVSNPTIKPHSVPSHTLPSHPLTPSSKHADSKPVALTPAYHTLPHPSHHGTPHTTISWGPLEPPKTPKPWSLSCLRPAPPLRPSAALCYKEDLSRSPKTMKKLLPKRKPERKPSDEEFAVRKSTAALEEDAQILKVIEAYCTSAKTRQTLNSSSRKESAPQVLLPEEEKIIVEETKSNGQTVIEEKSLVDTVYALKDEVQELRQDNKKMKKSLEEEQRARKDLEKLVRKVLKNMNDPAWDETNL
B2: U4/U6.U5 tri-snRNP-associated protein 1 (protein, UniProt Q5XIW8 1-806)
chain: MGSSKKHRGEKEAAGTTAAAGTGGTTEQPPRHREHKKHKHRSSGGGSSGGERRKRSRERGAERGSGRRGAEAEARSGAHGRERSQAEPSERRVKREKRDEGYEAAASSKASSGDASSLSIEETNKLRAKLGLKPLEVNAVKKEAGTKEEPVAADVINPMALRQREELREKLAAAKEKRLLNQKLGKIKTLGEDDPWLDDTAAWIERSRQLQKEKDLAEKRAKLLEEMDQEFGVSTLVEEEFEQRRQDLYSARDLQGLTVEHAIDSFREGETVVLTLKDKGVLQEGEDVLVNVNMVDKERADKNVELRKKKPDYLPYAEDESVDDLAQQKPRSILAKYDEELEGERPHSFRLEQGGMADGLRERELEEIRTKLRLQAQSLNTVGPRLASEYLSPEEMVTFKKTKRRVKKIRKKEKEVIMRADDLLPLGEDQTQDGDFGSRLRGRGRRRVPEVEEEALEDEEKDPVAQPPPSDDTRVENMDISDEEDGGALPSGPPELEEDEAELELQKQLEKGRRLRQLQQLQQLRDSGEKVLEIVKKLESRQRGWEEEEDPERKGTIVFNATSEFCRTLGEIPTYGLAGNREEQEELMDFERDEERSANGGSESDGEENIGWSTVNLDEEKQHQDFSASSTTILDEEPIVNRGLAAALLLCQNKGLLETTVQKVARVKAPNKSLPSAVYCIEDKMAIDDKYSRREEYRGFTQDFKEKDGYKPDVKIEYVDETGRKLTPKEAFRQLSHRFHGKGSGKMKTERRMKKLDEEALLKKMSSSDTPLGTVALLQEKQKAQKTPYIVLSGSGKSMNANTITK
B3: DEAD (Asp-Glu-Ala-Asp) box polypeptide 5 (protein, UniProt Q6AYI1 1-615)
chain: MSSYSSDRDRGRDRGFGAPRFGGSRTGPLSGKKFGNPGEKLVKKKWNLDELPKFEKNFYQEHPDLARRTAQEVDTYRRSKEITVRGHNCPKPVLNFYEANFPANVMDVIARQNFTEPTAIQAQGWPVALSGLDMVGVAQTGSGKTLSYLLPAIVHINHQPFLERGDGPICLVLAPTRELAQQVQQVAAEYCRACRLKSTCIYGGAPKGPQIRDLERGVEICIATPGRLIDFLECGKTNLRRTTYLVLDEADRMLDMGFEPQIRKIVDQIRPDRQTLMWSATWPKEVRQLAEDFLKDYIHINIGALELSANHNILQIVDVCHDVEKDEKLIRLMEEIMSEKENKTIVFVETKRRCDELTRKMRRDGWPAMGIHGDKSQQERDWVLNEFKHGKAPILIATDVASRGLDVEDVKFVINYDYPNSSEDYIHRIGRTARSTKTGTAYTFFTPNNIKQVSDLISVLREANQAINPKLLQLVEDRGSGRSRGRGGMKDDRRDRYSAGKRGGFNTFRDRENYDRGYSSLLKRDFGAKTQNGVYSAANYTNGSFGSNFVSAGIQTSFRTGNPTGTYQNGYDSTQQYGSNVANMHNGMNQQAYAYPATAAAAPMIGYPMPTGYSQ

target: StAR Related Lipid Transfer Domain Containing 10 (rat (endogenous in INS1 (832/13))); test: affinity purification with mass spectrometry; endogenous STARD10 immunoprecipitated from 1 mg INS1 (832/13) lysate with anti-PCTP-L (STARD10) antibody on Dynabeads Protein A, overnight at 4 °C; lysis buffer 20 mM HEPES, 150 mM NaCl, 1% Igepal; compared with rabbit IgG isotype control; on-bead trypsin digest, TMT labelling, nano-LC MS/MS

Row | Binder | binding
1 | B1 | binds
2 | B2 | binds
3 | B3 | binds

From publication PMC7322359
